Data as given in PubChem BioAssay AID686943 (Drosophila RNAi Screening Center, 2013)

Aim: 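Fly genes whose loss alters ERK activation after insulin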 (primary screen)
Cells: Drosophila S2R+ haemocyte-like cells expressing YFP-tagged ERK (Rolled)
Reagent: long dsRNA against Drosophila genes
Treatment: insulin stimulation versus unstimulated cells; dose and duration not given
Measurement: 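Per-plate z-scores of phospho-ERK immunostaining normalised to YFP-tagged ERK, measured with and without insulin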
Direction: replicate 1, z-score of dpERK with insulin: higher = more active ERK per ERK-YFP after insulin
In all, the deposit lists about 23,000 reagents; below is a random part of those that have a named target and a result. 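Extra replicates exist only for a retested subset of genes; insulin dose and duration not given; both raised and lowered dpERK matter.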 Further read-outs or replicates are left out here. Not stated in the record: the amount of reagent, the time to read-out.

gene knocked down | dsRNA | replicate 1, z-score of dpERK with insulin
Jhbp7 (Juvenile hormone binding protein 7) | DRSC14408 | 0.12
CG5866 | DRSC15900 | -0.88
Gorab (Golgin, RAB6 interacting) | DRSC10383 | -0.18
Ziz (Zizimin) | DRSC02506 | 0.03
Ziz (Zizimin) | DRSC02976 | -0.15
CG34188 | DRSC05549 | 0.29
CG14957 | DRSC08416 | 0.56
Vha16-2 (Vacuolar H[+] ATPase 16kD subunit 2) | DRSC10873 | -0.25
CG7579 | DRSC10885 | 0.12
upd2 (unpaired 2) | DRSC19969 | 0.88
GstE13 (Glutathione S transferase E13) | DRSC06083 | 0.84
GluClalpha (Glutamate-gated chloride channel subunit alpha) | DRSC16680 | 0.52
w (white) | DRSC17233 | -0.07
w (white) | DRSC18850 | -0.65

Look-ups from the list:
For “replicate 1, z-score of dpERK with insulin”, Ziz (Zizimin) [DRSC02976] reads -0.15
Gorab (Golgin, RAB6 interacting) [DRSC10383], replicate 1, z-score of dpERK with insulin → -0.18
For “replicate 1, z-score of dpERK with insulin”, CG7579 [DRSC10885] is entered as 0.12

Continued:
gene knocked down | dsRNA | replicate 1, z-score of dpERK with insulin
CG8300 | DRSC18426 | 0.12
ras (raspberry) | DRSC18825 | -0.85
fwd (four wheel drive) | DRSC08580 | 1.9
CG17778 | DRSC18504 | -1.47
Spn53F (Serpin 53F) | DRSC06022 | 0.23
CG43155 | DRSC19642 | 0.85
CG43155 | DRSC19777 | 0.63
ms(2)34Fe (male sterile (2) 34Fe) | DRSC01905 | 0.38
Ctr1A (Copper transporter 1A) | DRSC18336 | -2.51
Cpr65Ea (Cuticular protein 65Ea) | DRSC11027 | 0.32
abs (abstrakt) | DRSC12372 | 1.43
insv (insensitive) | DRSC00579 | -0.44
TwdlM (TweedleM) | DRSC15810 | 0.28
CG7916 | DRSC01901 | 0.76
CG9643 | DRSC00722 | 0.63
Polr2B (RNA polymerase II subunit B) | DRSC16831 | 6.49
wam (wampa) | DRSC15171 | -1.68
HIPP1 (HP1 and insulator partner protein 1) | DRSC11748 | 0.77
DptA (Diptericin A) | DRSC07404 | 0.15
CG32023 | DRSC08946 | 0.59
fwe (flower) | DRSC09398 | 0.46
fwe (flower) | DRSC10594 | 0.5
fwe (flower) | DRSC21400 | -1.21
Cpr76Bb (Cuticular protein 76Bb) | DRSC11061 | 1.09
Cpr76Bb (Cuticular protein 76Bb) | DRSC22870 | 2.44
